The list shows a part of the results.

By UniProt entry, the sequences of proteins in these tests, tags left out. Where a name states a change or a piece, a line headed by the entry shows the natural chain unless it says otherwise.
UniProt Q6ZS81: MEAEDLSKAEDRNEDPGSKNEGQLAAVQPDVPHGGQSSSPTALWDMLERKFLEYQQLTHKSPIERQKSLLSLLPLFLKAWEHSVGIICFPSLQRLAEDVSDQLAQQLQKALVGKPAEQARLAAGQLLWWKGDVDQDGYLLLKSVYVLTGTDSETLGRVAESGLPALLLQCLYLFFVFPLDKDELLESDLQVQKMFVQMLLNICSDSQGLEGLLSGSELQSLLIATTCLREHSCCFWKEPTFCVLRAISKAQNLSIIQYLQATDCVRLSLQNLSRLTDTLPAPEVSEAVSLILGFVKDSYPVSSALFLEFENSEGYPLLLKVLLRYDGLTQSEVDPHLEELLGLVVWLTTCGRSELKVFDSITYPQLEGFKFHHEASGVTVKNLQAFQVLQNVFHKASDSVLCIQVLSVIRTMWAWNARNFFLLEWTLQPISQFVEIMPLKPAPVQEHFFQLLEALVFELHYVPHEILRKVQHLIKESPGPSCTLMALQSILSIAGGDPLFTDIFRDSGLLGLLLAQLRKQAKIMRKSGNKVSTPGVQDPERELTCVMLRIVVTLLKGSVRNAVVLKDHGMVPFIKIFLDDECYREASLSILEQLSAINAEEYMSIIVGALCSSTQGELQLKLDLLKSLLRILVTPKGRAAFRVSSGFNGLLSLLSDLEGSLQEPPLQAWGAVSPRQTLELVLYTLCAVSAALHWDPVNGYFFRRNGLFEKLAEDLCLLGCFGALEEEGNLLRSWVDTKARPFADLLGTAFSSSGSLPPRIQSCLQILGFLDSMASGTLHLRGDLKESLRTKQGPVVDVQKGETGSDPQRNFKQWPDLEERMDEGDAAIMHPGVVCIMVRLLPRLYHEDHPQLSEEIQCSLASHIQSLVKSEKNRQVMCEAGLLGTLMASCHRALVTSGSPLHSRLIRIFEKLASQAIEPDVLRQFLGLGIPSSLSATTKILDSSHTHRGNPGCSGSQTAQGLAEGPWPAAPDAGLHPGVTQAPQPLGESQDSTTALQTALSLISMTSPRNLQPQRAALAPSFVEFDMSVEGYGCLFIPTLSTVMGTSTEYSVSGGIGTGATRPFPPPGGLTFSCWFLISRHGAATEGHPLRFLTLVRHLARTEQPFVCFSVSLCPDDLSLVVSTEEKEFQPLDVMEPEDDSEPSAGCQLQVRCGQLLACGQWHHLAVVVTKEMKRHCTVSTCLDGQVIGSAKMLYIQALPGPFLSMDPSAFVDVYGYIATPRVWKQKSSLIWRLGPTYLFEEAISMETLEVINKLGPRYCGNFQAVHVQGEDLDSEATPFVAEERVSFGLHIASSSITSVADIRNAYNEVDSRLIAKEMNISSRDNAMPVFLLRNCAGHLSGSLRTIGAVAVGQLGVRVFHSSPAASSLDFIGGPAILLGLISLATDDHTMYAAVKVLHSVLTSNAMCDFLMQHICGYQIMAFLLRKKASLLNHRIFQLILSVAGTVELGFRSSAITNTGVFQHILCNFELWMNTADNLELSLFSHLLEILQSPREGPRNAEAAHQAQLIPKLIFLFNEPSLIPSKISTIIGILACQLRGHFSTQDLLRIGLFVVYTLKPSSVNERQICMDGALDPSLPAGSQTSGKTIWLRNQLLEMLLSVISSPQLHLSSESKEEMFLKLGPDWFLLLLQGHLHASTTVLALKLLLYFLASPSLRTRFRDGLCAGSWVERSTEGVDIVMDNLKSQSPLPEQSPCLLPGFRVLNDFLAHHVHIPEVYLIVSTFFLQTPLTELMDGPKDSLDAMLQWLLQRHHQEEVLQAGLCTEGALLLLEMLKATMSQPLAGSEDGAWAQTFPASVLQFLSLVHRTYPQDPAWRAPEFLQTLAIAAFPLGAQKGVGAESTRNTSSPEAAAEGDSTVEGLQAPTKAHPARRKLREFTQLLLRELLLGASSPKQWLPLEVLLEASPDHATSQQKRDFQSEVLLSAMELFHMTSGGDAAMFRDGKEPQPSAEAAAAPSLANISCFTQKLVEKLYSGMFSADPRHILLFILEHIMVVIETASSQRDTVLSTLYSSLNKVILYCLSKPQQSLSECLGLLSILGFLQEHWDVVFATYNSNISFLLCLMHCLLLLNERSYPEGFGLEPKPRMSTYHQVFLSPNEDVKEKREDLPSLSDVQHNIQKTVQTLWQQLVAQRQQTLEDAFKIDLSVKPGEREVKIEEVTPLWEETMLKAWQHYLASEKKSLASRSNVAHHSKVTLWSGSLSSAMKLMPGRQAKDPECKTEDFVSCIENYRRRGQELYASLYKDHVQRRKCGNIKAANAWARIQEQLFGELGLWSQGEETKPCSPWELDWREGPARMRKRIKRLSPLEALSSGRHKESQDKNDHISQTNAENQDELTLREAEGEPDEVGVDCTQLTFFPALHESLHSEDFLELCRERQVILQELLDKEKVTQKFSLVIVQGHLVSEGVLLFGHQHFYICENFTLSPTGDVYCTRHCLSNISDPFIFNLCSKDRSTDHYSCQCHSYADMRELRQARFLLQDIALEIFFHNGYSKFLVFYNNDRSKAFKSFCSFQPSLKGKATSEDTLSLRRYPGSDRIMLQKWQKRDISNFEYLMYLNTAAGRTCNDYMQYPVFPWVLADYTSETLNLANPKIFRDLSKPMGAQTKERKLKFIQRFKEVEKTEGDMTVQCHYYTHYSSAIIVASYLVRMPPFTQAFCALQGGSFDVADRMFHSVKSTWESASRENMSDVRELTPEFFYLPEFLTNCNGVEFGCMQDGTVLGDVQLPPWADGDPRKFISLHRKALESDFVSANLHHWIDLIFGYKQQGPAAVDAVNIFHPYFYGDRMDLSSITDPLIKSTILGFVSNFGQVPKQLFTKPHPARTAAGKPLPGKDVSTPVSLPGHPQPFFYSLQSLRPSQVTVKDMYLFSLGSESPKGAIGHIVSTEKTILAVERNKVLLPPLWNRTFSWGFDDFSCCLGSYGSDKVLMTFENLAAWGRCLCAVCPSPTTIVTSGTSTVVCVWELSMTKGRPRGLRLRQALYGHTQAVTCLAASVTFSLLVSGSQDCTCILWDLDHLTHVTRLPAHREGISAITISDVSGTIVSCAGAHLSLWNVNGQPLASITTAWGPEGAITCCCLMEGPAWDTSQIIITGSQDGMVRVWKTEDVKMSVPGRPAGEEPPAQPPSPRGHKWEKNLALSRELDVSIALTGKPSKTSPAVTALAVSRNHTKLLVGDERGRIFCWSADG
UniProt Q15061: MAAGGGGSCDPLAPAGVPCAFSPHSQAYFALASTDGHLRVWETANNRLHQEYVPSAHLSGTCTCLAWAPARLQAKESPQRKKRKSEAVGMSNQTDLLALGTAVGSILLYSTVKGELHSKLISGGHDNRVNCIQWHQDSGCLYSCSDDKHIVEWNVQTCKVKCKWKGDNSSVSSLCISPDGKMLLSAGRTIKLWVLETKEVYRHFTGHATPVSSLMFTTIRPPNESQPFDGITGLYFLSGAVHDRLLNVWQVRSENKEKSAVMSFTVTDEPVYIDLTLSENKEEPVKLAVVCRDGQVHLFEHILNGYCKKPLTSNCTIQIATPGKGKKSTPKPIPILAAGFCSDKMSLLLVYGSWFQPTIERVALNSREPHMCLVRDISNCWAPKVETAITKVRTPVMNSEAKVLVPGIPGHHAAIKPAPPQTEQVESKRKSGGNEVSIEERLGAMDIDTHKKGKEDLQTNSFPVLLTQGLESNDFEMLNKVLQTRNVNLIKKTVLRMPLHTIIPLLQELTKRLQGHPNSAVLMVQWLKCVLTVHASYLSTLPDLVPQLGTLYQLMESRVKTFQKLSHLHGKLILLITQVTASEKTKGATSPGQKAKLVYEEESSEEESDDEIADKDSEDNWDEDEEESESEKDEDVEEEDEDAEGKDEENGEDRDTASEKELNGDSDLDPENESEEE
UniProt Q9NQW7: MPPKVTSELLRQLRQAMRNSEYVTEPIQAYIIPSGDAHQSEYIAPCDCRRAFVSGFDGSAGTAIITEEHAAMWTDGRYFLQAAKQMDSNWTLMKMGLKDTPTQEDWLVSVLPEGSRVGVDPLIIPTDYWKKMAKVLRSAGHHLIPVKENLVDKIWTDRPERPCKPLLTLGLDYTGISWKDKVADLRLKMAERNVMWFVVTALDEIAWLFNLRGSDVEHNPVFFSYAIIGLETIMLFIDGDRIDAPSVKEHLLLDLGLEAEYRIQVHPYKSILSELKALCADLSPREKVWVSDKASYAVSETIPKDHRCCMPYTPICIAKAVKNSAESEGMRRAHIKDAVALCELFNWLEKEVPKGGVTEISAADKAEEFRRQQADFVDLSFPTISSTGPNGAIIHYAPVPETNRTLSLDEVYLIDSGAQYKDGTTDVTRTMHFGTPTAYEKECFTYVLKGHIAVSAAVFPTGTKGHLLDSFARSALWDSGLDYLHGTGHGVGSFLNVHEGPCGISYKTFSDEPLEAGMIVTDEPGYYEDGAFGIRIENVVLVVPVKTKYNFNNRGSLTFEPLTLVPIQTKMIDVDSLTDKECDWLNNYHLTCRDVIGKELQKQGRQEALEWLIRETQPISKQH
UniProt O75717: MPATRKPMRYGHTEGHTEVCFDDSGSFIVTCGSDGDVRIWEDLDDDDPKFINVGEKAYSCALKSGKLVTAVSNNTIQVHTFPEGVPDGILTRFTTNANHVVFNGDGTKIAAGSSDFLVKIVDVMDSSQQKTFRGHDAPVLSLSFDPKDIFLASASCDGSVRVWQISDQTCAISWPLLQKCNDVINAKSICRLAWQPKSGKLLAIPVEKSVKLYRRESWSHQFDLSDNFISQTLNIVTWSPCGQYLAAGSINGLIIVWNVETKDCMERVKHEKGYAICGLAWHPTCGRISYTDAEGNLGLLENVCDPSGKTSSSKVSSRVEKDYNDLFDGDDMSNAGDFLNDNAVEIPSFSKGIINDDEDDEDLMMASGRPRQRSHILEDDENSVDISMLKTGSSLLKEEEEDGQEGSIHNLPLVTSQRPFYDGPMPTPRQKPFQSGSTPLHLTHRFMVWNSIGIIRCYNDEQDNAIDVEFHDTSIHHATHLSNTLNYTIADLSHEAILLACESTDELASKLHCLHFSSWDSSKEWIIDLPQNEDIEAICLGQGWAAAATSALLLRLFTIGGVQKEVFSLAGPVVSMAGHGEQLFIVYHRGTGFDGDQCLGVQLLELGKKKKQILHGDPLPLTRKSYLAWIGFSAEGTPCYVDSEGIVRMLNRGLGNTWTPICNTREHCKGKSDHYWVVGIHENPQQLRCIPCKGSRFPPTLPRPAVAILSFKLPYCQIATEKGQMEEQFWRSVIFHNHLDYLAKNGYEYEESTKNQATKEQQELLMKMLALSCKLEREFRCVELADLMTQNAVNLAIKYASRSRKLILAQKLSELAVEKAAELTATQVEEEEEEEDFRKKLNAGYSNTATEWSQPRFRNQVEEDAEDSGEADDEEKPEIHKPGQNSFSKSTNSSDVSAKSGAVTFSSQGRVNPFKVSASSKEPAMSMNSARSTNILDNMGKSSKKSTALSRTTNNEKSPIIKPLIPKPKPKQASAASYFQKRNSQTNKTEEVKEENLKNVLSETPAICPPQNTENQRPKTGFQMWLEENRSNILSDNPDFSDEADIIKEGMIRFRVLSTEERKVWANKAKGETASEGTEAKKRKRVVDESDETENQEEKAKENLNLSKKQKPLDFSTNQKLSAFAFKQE
UniProt Q6PJI9: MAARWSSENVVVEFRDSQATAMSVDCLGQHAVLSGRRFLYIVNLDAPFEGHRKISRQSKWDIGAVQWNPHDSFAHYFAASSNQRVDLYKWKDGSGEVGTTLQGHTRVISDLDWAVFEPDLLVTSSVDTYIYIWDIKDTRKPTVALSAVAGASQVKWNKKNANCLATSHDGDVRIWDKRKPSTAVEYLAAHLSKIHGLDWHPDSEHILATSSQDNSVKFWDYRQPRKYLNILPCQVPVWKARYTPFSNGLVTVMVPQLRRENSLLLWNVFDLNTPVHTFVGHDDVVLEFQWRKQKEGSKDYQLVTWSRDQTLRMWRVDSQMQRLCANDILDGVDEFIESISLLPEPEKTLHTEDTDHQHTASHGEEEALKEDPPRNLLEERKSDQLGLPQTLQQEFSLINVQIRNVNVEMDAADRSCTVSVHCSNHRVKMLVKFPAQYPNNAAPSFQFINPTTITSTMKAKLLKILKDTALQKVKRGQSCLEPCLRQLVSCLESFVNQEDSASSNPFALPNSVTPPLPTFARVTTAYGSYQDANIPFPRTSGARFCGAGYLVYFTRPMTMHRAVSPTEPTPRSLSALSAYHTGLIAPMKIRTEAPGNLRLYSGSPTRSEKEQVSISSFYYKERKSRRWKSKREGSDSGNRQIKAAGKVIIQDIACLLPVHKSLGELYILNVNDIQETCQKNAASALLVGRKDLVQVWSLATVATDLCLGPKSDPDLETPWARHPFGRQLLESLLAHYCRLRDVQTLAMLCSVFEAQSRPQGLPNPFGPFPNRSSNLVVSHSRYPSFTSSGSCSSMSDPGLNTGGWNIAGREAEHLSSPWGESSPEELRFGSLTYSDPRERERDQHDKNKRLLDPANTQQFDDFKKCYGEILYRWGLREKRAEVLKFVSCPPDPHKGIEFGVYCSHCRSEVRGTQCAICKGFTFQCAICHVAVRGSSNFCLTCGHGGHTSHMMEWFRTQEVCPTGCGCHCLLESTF

Compound in this assay: CC1Cc2ccccc2N1C(=O)C1CCCN(C1)C(=O)CCl (mixture of isomers) [TRIM25 ligand 11 (diastereomer mixture)]
Nature of the assay: probe-labelled cysteine peptide fold change vs DMSO (competition) (log2 fold change); higher = less target engagement (more negative = stronger competition). The following applies: THP-1, incubation time: 4 h.
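Also: competitive chemoproteomic profiling in live THP-1 cells with an iodoacetamide desthiobiotin (IA-DTB) probe, comparing probe-labelled peptide intensities in compound-treated cells against DMSO-treated controls.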

With “WDCP_Q9H6R7_472_LIESLSPDFCHQNK (UniProt Q9H6R7)”, the “probe-labelled cysteine peptide fold change” value was -0.129 (10 µM) and -0.149 (50 µM).
For “WDFY4_Q6ZS81_858_LYHEDHPQLSEEIQCSLASHIQSLVK (UniProt Q6ZS81)”, the “probe-labelled cysteine peptide fold change” value (10 µM) is 0.002 and the “probe-labelled cysteine peptide fold change” value (50 µM) was -0.267.
For “WDR11_Q9BZH6_411_NSSSGVSPLYSPVSFCGIPVGVLQNK (UniProt Q9BZH6)”, the “probe-labelled cysteine peptide fold change” value reads like this: (10 µM) -0.0944; (50 µM) -0.0348.
As for “WBP4_O75554_18_CWIADNRPSVEFHER (UniProt O75554)”, the “probe-labelled cysteine peptide fold change” value (10 µM) was -0.0412 and the “probe-labelled cysteine peptide fold change” value (50 µM) was -0.13.
On to “WDR43_Q15061_315_KPLTSNCTIQIATPGK (UniProt Q15061)”, for which the “probe-labelled cysteine peptide fold change” value runs as follows: (10 µM) -0.0227; (50 µM) -0.0744.
For “WDR76_Q9H967_81_NSNNEVACKK (UniProt Q9H967)” the same measures were -0.37 and -0.427.
For “WDR91_A4D1P6_366_KPEASGPEAEPCPELHTEPVEPLTR (UniProt A4D1P6)” the same measures were -0.0977 and -0.192.
Turning to “XPNPEP1_Q9NQW7_309_CCMPYTPICIAK (UniProt Q9NQW7)”, the “probe-labelled cysteine peptide fold change” value (10 µM) is -0.193 and the “probe-labelled cysteine peptide fold change” value (50 µM) is -0.0883.
For “WDR92_Q96MX6_24_GFNYTVFDCK (UniProt Q96MX6)”, the “probe-labelled cysteine peptide fold change” value (10 µM) stood at 0.0338 and the “probe-labelled cysteine peptide fold change” value (50 µM) turned out to be 0.131.
As to “WDHD1_O75717_277+285_GYAICGLAWHPTCGR (UniProt O75717)”, the “probe-labelled cysteine peptide fold change” value (10 µM) is -0.16 and the “probe-labelled cysteine peptide fold change” value (50 µM) is -0.111.
Turning to “XAB2_Q9HCS7_695_AIYSFCSQICDPR (UniProt Q9HCS7)”, the “probe-labelled cysteine peptide fold change” value by setting is: (10 µM) 0.0334; (50 µM) 0.197.
Consider “WDR77_Q9BQA1_186_DSVFLSCSEDNR (UniProt Q9BQA1)”, for which the “probe-labelled cysteine peptide fold change” value was 0.204 (10 µM) and 0.0668 (50 µM).
For “WDFY3_Q8IZQ1_1600_FGQFISSTLPTFAVCEK (UniProt Q8IZQ1)”, in that order: -0.165 and -0.127.
On to “WDR48_Q8TAF3_225_DGTQCLSGSSDGTIR (UniProt Q8TAF3)”, for which the “probe-labelled cysteine peptide fold change” value was -0.0488 (10 µM) and -0.132 (50 µM).
On to “WDR59_Q6PJI9_163_NANCLATSHDGDVR (UniProt Q6PJI9)”, for which the “probe-labelled cysteine peptide fold change” value was 0.139 (10 µM) and -0.0111 (50 µM).
On to “WDR82_Q6UXN9_141_SPNCQGLMHLQGK (UniProt Q6UXN9)”, for which the “probe-labelled cysteine peptide fold change” value worked out at 0.189 (10 µM) and 0.1 (50 µM).
Consider “WDR75_Q8IWA0_306_LGATIEHISVSPAGDLFCTSHSDNK (UniProt Q8IWA0)”, for which the “probe-labelled cysteine peptide fold change” value by setting is: (10 µM) 0.114; (50 µM) 0.0175.
For “WDR6_Q9NNW5_1096_LGHGEPTFMNSTVFHVPDVADMDCWPVSPEFGHR (UniProt Q9NNW5)” the same measures were 0.344 and -0.0636.
As for “XPC_Q01831_680_DCVHTLHSR (UniProt Q01831)”, the “probe-labelled cysteine peptide fold change” value by setting is: (10 µM) 0.0616; (50 µM) 0.195.
In the case of “WDR37_Q9Y2I8_329_TANLYDVETSELVHSLTGHDQELTHCCTHPTQR (UniProt Q9Y2I8)”, the “probe-labelled cysteine peptide fold change” value is 0.0866 (10 µM) and -0.193 (50 µM).
Take “WDR33_Q9C0J8_120_CPVFVVR (UniProt Q9C0J8)”: the “probe-labelled cysteine peptide fold change” value is -0.0921 (10 µM) and 0.0764 (50 µM).
As to “WDFY4_Q6ZS81_835_MDEGDAAIMHPGVVCIMVR (UniProt Q6ZS81)”, the “probe-labelled cysteine peptide fold change” value (10 µM) is -0.0349 and the “probe-labelled cysteine peptide fold change” value (50 µM) is -0.194.
On to “WARS_P23381_305+309_TDIQCLIPCAIDQDPYFR (UniProt P23381)”, for which the “probe-labelled cysteine peptide fold change” value was -0.101 (10 µM) and -0.151 (50 µM).
Turning to “WDR55_Q9H6Y2_5_TCEERPAEDGSDEEDPDSMEAPTR (UniProt Q9H6Y2)”, the “probe-labelled cysteine peptide fold change” value by setting is: (10 µM) -0.76; (50 µM) -0.645.
Take “XAF1_Q6GPH4_105_LELHESYCGSR (UniProt Q6GPH4)”: the “probe-labelled cysteine peptide fold change” value reads like this: (10 µM) 0.214; (50 µM) -0.0316.
For “WDR81_Q562E7_1226_ILLDTACK (UniProt Q562E7)” the same measures were -0.0576 and -0.0596.
“WDR3_Q9UNX4_448_STLQCIR (UniProt Q9UNX4)”: the “probe-labelled cysteine peptide fold change” value reads like this: (10 µM) 0.0627; (50 µM) 0.335.
Take “WDR43_Q15061_291_LAVVCR (UniProt Q15061)”: the “probe-labelled cysteine peptide fold change” value by setting is: (10 µM) -0.051; (50 µM) 0.0308.
For “WDR62_O43379_256_SGILGELHNNIFCGVACGR (UniProt O43379)” the same measures were 0.132 and 0.0882.
Regarding “WDR59_Q6PJI9_677_SLGELYILNVNDIQETCQK (UniProt Q6PJI9)”, the “probe-labelled cysteine peptide fold change” value (10 µM) turned out to be 0.0212 and the “probe-labelled cysteine peptide fold change” value (50 µM) came to 0.159.
For “WDR26_Q9H7D7_316_CLYHNTK (UniProt Q9H7D7)” the same measures were 0.06 and 0.0415.
For “WDFY4_Q6ZS81_2460_STDHYSCQCHSYADMR (UniProt Q6ZS81)” the same measures were 0.377 and -0.0469.
As to “WDFY1_Q8IWB7_317_KCGQAVCGK (UniProt Q8IWB7)”, the “probe-labelled cysteine peptide fold change” value is -0.145 (10 µM) and -0.188 (50 µM).
With “WDR12_Q9GZL7_185_ALHCCR (UniProt Q9GZL7)”, the “probe-labelled cysteine peptide fold change” value worked out at 0.0665 (10 µM) and 0.103 (50 µM).
For “WDHD1_O75717_285_GYAICGLAWHPTCGR (UniProt O75717)”, in that order: -0.0357 and -0.0182.
For “XPNPEP1_Q9NQW7_308_CCMPYTPICIAK (UniProt Q9NQW7)” the same measures were -0.0512 and -0.0661.
With “WWOX_Q9NZC7_155_SFALHGAHVILACR (UniProt Q9NZC7)”, the “probe-labelled cysteine peptide fold change” value runs as follows: (10 µM) 0.0852; (50 µM) 0.147.

(Values after the supplement of paper PMC12067093, “Discovery and optimisation of a covalent ligand for TRIM25 and its application to targeted protein ubiquitination” (Chemical Science, 2025).)
